Hit rate of the full screen: of about 330,000 compounds, about 7,700 (2.3%) were called active. The inconclusive results got no clear call from the source; some entries with a clear call stand among them for comparison. The call rests on the fitted dose curve; in most records, active means well fitted inhibition curve with a large enough effect; inconclusive means small, poorly fitted or top-dose-only effect, or effect the other way; inactive means flat fitted curve, though single readings scatter. Where the call is inconclusive, the potency comes from a doubtful curve fit.
Assay: qHTS screen for small molecules that inhibit ELG1-dependent DNA repair in human embryonic kidney (HEK293T) cells expressing luciferase-tagged ELG1; further: nearly all actives have a fitted effect of over 55% in size
Details: HEK293T ELG1-luciferase reporter, luminescence, 16 h, DNA damage induced by 5-fluorouridine; series mostly up to 46.1 µM
Procedure, shortened: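 5-Fluorouridine DNA damage + compound/DMSO, 2,000 cells/well, 16 h, 37 °C/5% CO2. ONE-Glo, 30 min RT, luminescence. Readout = decrease in reporter signal.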
Potency means the concentration at half of the fitted maximal effect.

| Structure (SMILES) | Potency |
| --- | --- |
| CCc1ccc(C(=O)CN2C(=O)NC3(CCOc4ccccc43)C2=O)s1 (centres undefined) | inactive |
| CCCCN(C)CCNC(=O)c1cc2c(-c3ccccc3F)nn(C)c2s1 | inconclusive: 11.6 µM [activator, partial curve] |
| COc1cc(CNc2ccccc2Oc2cc(=O)n(C)c(=O)n2C)cc(OC)c1OC | inconclusive: 17.8 µM [activator, single point] |
| C(=C\c1ccccc1)/C=N/N1CCN(Cc2ccccc2)CC1 | inconclusive: 29.1 µM [activator, single point] |
| COCCCNC(=O)C1=CCN(S(=O)(=O)c2ccc(OC)cc2)CC1 | inactive |
| COc1ccc(C(=O)N(C)c2ccccc2C(=O)NCCc2ccccc2)cc1 | inactive |
| O=C(c1ccc(-n2cncn2)c([N+](=O)[O-])c1)N1CCN(S(=O)(=O)c2ccc(Cl)cc2)CC1 | inactive |
| CCCNc1nc(-c2ccccc2)c(C(=O)OCC)cc1C#N | inactive |
| CCOc1ccc(NC(=O)COC(=O)Cn2nc(C)c([N+](=O)[O-])c2C)cc1OCC | inconclusive: 16.4 µM [activator, single point] |
| C[C@H]1CN([C@@H](C)CO)C(=O)c2cccc(NC(=O)C3CC3)c2O[C@H]1CN(C)C(=O)Nc1ccc2c(c1)OCO2 | inconclusive: 14.6 µM [activator, partial curve, poor fit] |
| COc1cccc(-c2noc(-c3ccc(Cl)nc3)n2)c1 | inconclusive: 13 µM [activator, partial curve] |
| CCCOC(=O)c1c(N)sc2c1CCC2 | inactive |
| CC(NC(=O)COC(=O)c1cc(S(=O)(=O)N2CCOCC2)ccc1F)c1ccccc1 (centres undefined) | inactive |
| COCCCn1c(=N)c(C(=O)NC2CCCCC2)cc2c(=O)n3ccccc3nc21 | inactive |
| CCOC(=O)c1sc(=NC(=O)c2ccco2)n(C)c1C | inconclusive: 18.3 µM [activator, partial curve] |
| Cc1ccc(-c2nc3cc(N)ccc3o2)cc1 | inconclusive: 1.3 µM [activator, full curve] |
| CCCCCn1c(CN2CCN(c3cc(Cl)ccc3C)CC2)nc2c1c(=O)[nH]c(=O)n2C | inconclusive: 0.58 µM [inhibitor, single point] |
| COC(=O)c1cc2c(ccn2-c2ccc(F)cc2)n1CC(=O)OC(C)C | inconclusive: 18.3 µM [inhibitor, single point] |
| O=C(c1ccco1)N1CCN(c2nc(C3CC3)nc3c2nnn3Cc2ccccc2Cl)CC1 | inconclusive: 18.4 µM [inhibitor, single point] |
| CC(=O)Nc1ccc(NCN2C(=O)C3C4CCC(C4)C3C2=O)cc1 (centres undefined) | inactive |
| O=C(CCCN1C(=O)c2cccnc2Oc2ccc(Cl)cc21)N1CCCCC1 | inactive |
| CCOc1ccc(-c2nc(C#N)c(NCc3ccc4c(c3)OCO4)o2)cc1 | inconclusive: 9.2 µM [activator, partial curve, poor fit] |
| O=C(Nc1nc2ccccc2[nH]1)c1ccc(Br)o1 | inconclusive: 3.66 µM [activator, partial curve] |

Fetched by structure from above (2):

| Structure (SMILES) | Potency |
| --- | --- |
| O=C(c1ccco1)N1CCN(c2nc(C3CC3)nc3c2nnn3Cc2ccccc2Cl)CC1 | inconclusive: 18.4 µM [inhibitor, single point] |
| O=C(c1ccc(-n2cncn2)c([N+](=O)[O-])c1)N1CCN(S(=O)(=O)c2ccc(Cl)cc2)CC1 | inactive |

Later entries:

| Structure (SMILES) | Potency |
| --- | --- |
| COc1cc(C(CC(=O)N2CCOCC2)c2c(OC)cc(OC)c3ccc(=O)oc23)cc(OC)c1OC (centres undefined) | inconclusive: 23.1 µM [activator, partial curve, poor fit] |
| COc1ccc(C(CNC(=O)c2cccc(S(=O)(=O)NCc3ccccc3)c2)N(C)C)cc1 (centres undefined) | inactive |
| COc1ccccc1N1CCN(C(=O)C2CCCCN2S(=O)(=O)c2ccc(C)cc2)CC1 (centres undefined) | inconclusive: 23.1 µM [inhibitor, single point] |
| CN(C)CCN1C(=O)C(O)=C(C(=O)c2cc3ccccc3o2)C1c1ccc(N(C)C)cc1 (centres undefined) | inconclusive: 20.6 µM [activator, partial curve, poor fit] |
| O=C(NCc1cccnc1)c1ccc(CS(=O)(=O)c2ccc(Cl)cc2)o1 | inconclusive: 0.461 µM [inhibitor, full curve, poor fit] |
| Cc1nc2scc(-c3cccs3)c2c(=O)[nH]1 | inconclusive: 18.4 µM [activator, partial curve, poor fit] |
| CC(=O)c1c(O)cc(C)n(-c2ccc(F)cc2)c1=O | inactive |
| COc1cccc(C(=O)Nc2ccc(NC(=O)Cc3ccccc3)cc2)c1 | inactive |
| Cn1c(=S)[nH]c2scc(-c3cccs3)c2c1=O | inconclusive: 29.1 µM [inhibitor, single point] |
| CCN(CC)S(=O)(=O)c1ccc(NC(=O)Cc2cccs2)cc1 | inconclusive: 23.1 µM [inhibitor, partial curve, poor fit] |
| COC(=O)c1ccccc1NC(=O)CN1CCC(n2nnc3cc(C(F)(F)F)ccc32)CC1 | inconclusive: 3.26 µM [inhibitor, partial curve, poor fit] |
| CC(C)c1ccc(NC(=S)NNC(=O)c2cccs2)cc1 | inconclusive: 14.6 µM [activator, partial curve] |
| Clc1cccc(Cl)c1CNC1CCCC1 | inconclusive: 29.1 µM [activator, single point] |
| COC(=O)Nc1ccc(C)c2nsnc12 | inconclusive: 20.6 µM [activator, partial curve, poor fit] |
| COc1ccc(N2CCN(C(=O)CSc3nc4c(c(=O)n(C)c(=O)n4C)n3C(C)C)CC2)cc1 | active: 20.6 µM |
| COc1ccc(N2CCN(CCNC(=O)c3ccc4c(c3)[nH]c(=S)n3c5ccccc5nc43)CC2)cc1 | inconclusive: 18.3 µM [activator, partial curve] |
| Cc1nn(C)c(C)c1C1C(C#N)=C(N)Oc2n[nH]c(C)c21 (centres undefined) | inactive |
| CC(C)N1CC(C(=O)Nc2ccc(Cl)c([N+](=O)[O-])c2)CC1=O (centres undefined) | inconclusive: 1.16 µM [inhibitor, partial curve, poor fit] |
| CCN(CC)C(=O)c1cccc(-c2ccc(OC)cc2)c1 | inconclusive: 10.3 µM [activator, partial curve] |
| O=[N+]([O-])c1cc(S(=O)(=O)Nc2cccc(Cl)c2)ccc1N=Nc1c(O)[nH]c2ccccc12 | inconclusive: 25.9 µM [inhibitor, single point] |
| CC1CCCN(CCCN2C(=O)C3C(C(=O)Nc4cccc(Cl)c4)C4C=CC3(O4)C2C(=O)NC2CCCCC2)C1 (centres undefined) | inactive |
| COn1c(SCc2cccc(Cl)c2)nc2ccccc2c1=O | inactive |
| Nc1cc(N)cc(C(=O)Nc2ccc3c(c2)C(=O)NC3=O)c1 | inactive |

| Structure (SMILES) | Potency |
| --- | --- |
| Cc1ccc(S(=O)(=O)N2CCCN(c3nc4cc(C)ccc4cc3C#N)CC2)cc1 | inconclusive: 20.6 µM [inhibitor, partial curve, poor fit] |
| CCN(CC)S(=O)(=O)c1ccc2c(c1)nc(SCC(=O)N1CCCCCC1)n2-c1ccc(OC)cc1 | active: 5.17 µM |
| CCOC(=O)C1C(=O)NC(c2ccccc2)=NC1c1ccc(Br)cc1 (centres undefined) | inactive |
| O=C(N/N=C/c1cccnc1)c1ccccc1 | inconclusive: 16.4 µM [activator, partial curve] |
| Cc1cc(-c2ccccc2C(=O)NC2CCCCC2)on1 | inconclusive: 29.1 µM [activator, single point] |
| COc1ccc(Cc2nc(-c3ccccn3)no2)cc1 | inconclusive: 20.6 µM [activator, partial curve] |
| Nn1c(-c2ccccc2)cc(-c2ccccc2)cc1=O | inconclusive: 3.16 µM [activator, partial curve, poor fit] |
| COc1ccccc1/C=C/C(=O)NC(=S)Nc1ccccn1 | inconclusive: 10.3 µM [activator, partial curve] |
| COc1ccc(-c2cc(=O)c3ccccc3o2)cc1 | inconclusive: 11.6 µM [activator, partial curve] |
| O=C(CSc1ccc([N+](=O)[O-])cc1)Nc1cccc(S(=O)(=O)Nc2ccccc2F)c1 | inconclusive: 29.1 µM [inhibitor, single point] |
| CCOc1ccc2c(=O)c(-c3ccc4c(c3)OCCCO4)c(C)oc2c1 | inconclusive: 29.1 µM [inhibitor, single point] |
| CCn1ncc(Br)c1C(=O)Nc1cc(C(=O)OC)ccc1C(=O)OC | inconclusive: 20.6 µM [activator, partial curve, poor fit] |
| O=C(N/N=C/c1ccc(OC(F)F)cc1)C1=COCCO1 | inconclusive: 5.17 µM [activator, partial curve] |
| CN(C(=O)COC(=O)c1cccc(S(=O)(=O)N(C)c2ccccc2)c1)C1CCCCC1 | inconclusive: 25.1 µM [inhibitor, single point] |
| Cc1ccc(C)c(/C=C2\N=C(c3ccccc3F)OC2=O)c1 | inactive |
| NS(=O)(=O)c1ccc2c(c1)oc(=O)c1cc(S(N)(=O)=O)ccc12 | inactive |
| O=C(CCc1nnc(CCCCc2ccccc2)o1)NCCn1cccn1 | inactive |
| CC(C)N(C#N)c1nc(N2CCOCC2)nc(N2CCOCC2)n1 | inactive |
| COc1ccc(-c2nnc(SCC(=O)N3CCCC3)o2)cc1 | inconclusive: 18.3 µM [activator, partial curve] |
| O=C(Nc1cccc(S(=O)(=O)N2CCOCC2)c1)C1CCCN(C(=O)c2ccc(Cl)cc2)C1 (centres undefined) | inactive |
| COc1ccc(NC(=O)C2CCCN(C(=O)NC3CCCCC3)C2)cc1OC (centres undefined) | inconclusive: 25.9 µM [inhibitor, single point] |
| O=c1[nH]c(-c2ccccc2)cs1 | inconclusive: 32.6 µM [activator, partial curve, poor fit] |
| CCc1ccc(NC(=S)Nc2ccc(S(=O)(=O)Nc3ncccn3)cc2)cc1 | inconclusive: 16.4 µM [activator, single point] |
